These are yes or no findings as the source states them, for the method shown. For some assays here: In cells and extracts the contact can be indirect. Some binding calls cover weakened binding; strength is not graded here. For some assays here: Where a sequence is shown, tags or fusion partners need not be part of it.
Tests used:
[1] = molecular target: C/EBP-homologous protein (CHOP), GAL4 DNA binding domain fusion (pGBKT7-CHOP) (UniProt P35639); assay: two-hybrid; paired test: pGBKT7-CHOP and pGADT7-FBXO15 co-transformed in AH109; growth on SD-WL at 28 C for 3 days, then SD-WLAH; X-Gal overlay for lacZ activity
CHOP-FLAG = CHOP-FLAG (UniProt P35639); assay: co-IP; Raw264.7 cells transfected with CHOP-FLAG and FBXO15-HA, treated with MG132 (2 uM) for 24 h; immunoprecipitation with anti-FLAG, immunoblotting with anti-HA and anti-FLAG

Protein sequences, listed by entry. Tags and fused reporters are not part of them.
UniProt P35639: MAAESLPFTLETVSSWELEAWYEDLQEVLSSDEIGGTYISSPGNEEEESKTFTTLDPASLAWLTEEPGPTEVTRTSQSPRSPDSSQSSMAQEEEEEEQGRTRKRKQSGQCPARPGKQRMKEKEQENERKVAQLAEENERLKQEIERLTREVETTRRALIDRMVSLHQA

binding [1]	binding (CHOP-FLAG)	Binder
binds	–	F-box only protein 15 (FBXO15) full-length protein, pGADT7-FBXO15 (protein, UniProt Q9QZN0 1-433) MPSEILVKILSYLDAVTLVCIGCVSRRFYHLADDNLIWVRKYAAAFRSKRSRWKATSVEETATSLSLLSVWDKEDGYWKKEYITKQISSVRAALTNSLSPVKRRTSLPSKTKESLRISGLGWTIILREASGKEHIMQHSNLSVNDNSVTVFWHDKNWPHVDTLSTLDLYGATPIFMEQYKGPNTSCPRWLSLIEKYDLSNLRKSAMIGCDRHVRVFCVNPGLLVGLWQENGGLAFVMANIHSHGLFERSIMGSDTIPYTLPPDTTFVDNYPDSMTFYGDKGFQLHIDIHGSKTYFLCSTFHNLFCRRAGINNGYVKFLMINLKNNREHLPLVGKVGLEWRTDCLNGRIESCIVVDMTLLDEDKKPIWYVSSPVCLRSACLPDFPQPAYSFEYMDSVGGVCADLGWFENTDEYFIVRLDIYLSVAKLQQWFGRQ
–	binds	FBXO15-HA (protein, UniProt Q9QZN0 1-433) MPSEILVKILSYLDAVTLVCIGCVSRRFYHLADDNLIWVRKYAAAFRSKRSRWKATSVEETATSLSLLSVWDKEDGYWKKEYITKQISSVRAALTNSLSPVKRRTSLPSKTKESLRISGLGWTIILREASGKEHIMQHSNLSVNDNSVTVFWHDKNWPHVDTLSTLDLYGATPIFMEQYKGPNTSCPRWLSLIEKYDLSNLRKSAMIGCDRHVRVFCVNPGLLVGLWQENGGLAFVMANIHSHGLFERSIMGSDTIPYTLPPDTTFVDNYPDSMTFYGDKGFQLHIDIHGSKTYFLCSTFHNLFCRRAGINNGYVKFLMINLKNNREHLPLVGKVGLEWRTDCLNGRIESCIVVDMTLLDEDKKPIWYVSSPVCLRSACLPDFPQPAYSFEYMDSVGGVCADLGWFENTDEYFIVRLDIYLSVAKLQQWFGRQ

From publication PMC7648083
